These results are taken from article PMC8119428.

Protein sequences, listed by entry. Tags and fused reporters are not part of them.
UniProt Q01860, whole entry K222A: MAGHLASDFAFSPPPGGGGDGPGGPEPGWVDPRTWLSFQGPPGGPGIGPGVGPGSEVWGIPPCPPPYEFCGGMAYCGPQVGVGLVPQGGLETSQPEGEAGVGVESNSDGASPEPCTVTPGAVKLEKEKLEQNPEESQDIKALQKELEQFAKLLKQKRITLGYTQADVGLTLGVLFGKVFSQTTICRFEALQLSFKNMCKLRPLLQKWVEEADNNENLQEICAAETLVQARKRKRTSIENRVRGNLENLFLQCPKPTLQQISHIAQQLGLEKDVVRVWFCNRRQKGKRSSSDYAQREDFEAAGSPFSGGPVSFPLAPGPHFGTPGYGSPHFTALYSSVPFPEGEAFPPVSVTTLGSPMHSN
UniProt Q01860, whole entry K222F: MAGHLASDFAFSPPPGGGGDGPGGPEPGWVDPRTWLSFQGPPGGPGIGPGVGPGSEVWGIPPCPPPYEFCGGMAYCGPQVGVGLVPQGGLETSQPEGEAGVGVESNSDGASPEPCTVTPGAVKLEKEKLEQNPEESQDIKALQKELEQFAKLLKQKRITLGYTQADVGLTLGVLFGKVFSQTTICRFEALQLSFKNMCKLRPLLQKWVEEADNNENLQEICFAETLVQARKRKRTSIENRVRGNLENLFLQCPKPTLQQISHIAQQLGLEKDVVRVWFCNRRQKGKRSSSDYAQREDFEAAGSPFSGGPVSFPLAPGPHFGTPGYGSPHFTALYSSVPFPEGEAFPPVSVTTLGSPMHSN
UniProt Q01860, whole entry K222D: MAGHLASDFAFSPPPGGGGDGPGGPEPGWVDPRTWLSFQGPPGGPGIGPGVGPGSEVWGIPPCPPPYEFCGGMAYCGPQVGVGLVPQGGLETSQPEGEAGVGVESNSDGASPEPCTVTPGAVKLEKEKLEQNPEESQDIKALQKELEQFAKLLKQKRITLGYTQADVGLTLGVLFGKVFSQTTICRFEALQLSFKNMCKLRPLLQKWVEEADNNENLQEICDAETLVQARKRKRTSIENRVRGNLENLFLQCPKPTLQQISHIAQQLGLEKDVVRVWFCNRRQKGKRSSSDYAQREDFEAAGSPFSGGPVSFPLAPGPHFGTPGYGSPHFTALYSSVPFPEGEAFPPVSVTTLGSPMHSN
UniProt Q01860, whole entry K222R: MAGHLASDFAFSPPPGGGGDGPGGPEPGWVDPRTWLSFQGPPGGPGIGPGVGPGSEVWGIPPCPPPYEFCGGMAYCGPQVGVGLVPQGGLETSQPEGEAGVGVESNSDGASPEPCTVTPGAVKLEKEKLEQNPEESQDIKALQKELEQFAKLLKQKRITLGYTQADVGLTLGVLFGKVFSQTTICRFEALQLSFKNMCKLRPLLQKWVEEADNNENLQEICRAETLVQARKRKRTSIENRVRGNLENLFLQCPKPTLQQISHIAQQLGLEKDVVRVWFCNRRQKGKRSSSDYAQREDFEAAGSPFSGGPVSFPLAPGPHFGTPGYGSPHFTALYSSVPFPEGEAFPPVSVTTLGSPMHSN

Test in all cases: EMSA
Background: In EMSA bound probe runs differently from free probe, usually more slowly.

The subject of one data set is OCT4 WT + SOX2. The settings on record: heterodimer, reference for K222D; LightShift EMSA: 20 ul, 1.5 ug His-OCT4, 0.5 ug His-SOX2 where used, 50 nM biotin-dsDNA, 1 ul poly(dI-dC), 1x loading buffer (salt and pH not stated), 30 min, 25 C; recombinant protein; protein details: His (pET28a),His (pET28a); label: 5'-biotin on sense strand.
Data set [1] deals with OCT4 K222A (Homo sapiens) (UniProt Q01860). The conditions noted are these: monomer, stronger than K222D; LightShift EMSA: 20 ul, 1.5 ug His-OCT4, 0.5 ug His-SOX2 where used, 50 nM biotin-dsDNA, 1 ul poly(dI-dC), 1x loading buffer (salt and pH not stated), 30 min, 25 C; recombinant protein; residues 1-360; protein details: His (pET28a); label: 5'-biotin on sense strand.
For a further data set, the system named is OCT4 K222D + SOX2. The settings on record: heterodimer, no obvious impact of the mutation; LightShift EMSA: 20 ul, 1.5 ug His-OCT4, 0.5 ug His-SOX2 where used, 50 nM biotin-dsDNA, 1 ul poly(dI-dC), 1x loading buffer (salt and pH not stated), 30 min, 25 C; recombinant protein; protein details: His (pET28a),His (pET28a); label: 5'-biotin on sense strand.
In data set [2] the target is OCT4 K222F (Homo sapiens) (UniProt Q01860). The conditions noted are these: monomer, stronger than K222D; LightShift EMSA: 20 ul, 1.5 ug His-OCT4, 0.5 ug His-SOX2 where used, 50 nM biotin-dsDNA, 1 ul poly(dI-dC), 1x loading buffer (salt and pH not stated), 30 min, 25 C; recombinant protein; residues 1-360; protein details: His (pET28a); label: 5'-biotin on sense strand.

Data set [3] concerns the target OCT4 K222D (Homo sapiens) (UniProt Q01860). The settings on record: LightShift EMSA: 20 ul, 1.5 ug His-OCT4, 0.5 ug His-SOX2 where used, 50 nM biotin-dsDNA, 1 ul poly(dI-dC), 1x loading buffer (salt and pH not stated), 30 min, 25 C, recombinant protein, residues 1-360, protein details: His (pET28a), label: 5'-biotin on sense strand.
Data set [4] has as its target OCT4 K222R (Homo sapiens) (UniProt Q01860). The settings on record: monomer, stronger than K222D; LightShift EMSA: 20 ul, 1.5 ug His-OCT4, 0.5 ug His-SOX2 where used, 50 nM biotin-dsDNA, 1 ul poly(dI-dC), 1x loading buffer (salt and pH not stated), 30 min, 25 C; recombinant protein; residues 1-360; protein details: His (pET28a); label: 5'-biotin on sense strand.
A further data set concerns the target OCT4 WT (Homo sapiens) (UniProt Q01860). The conditions noted are these: LightShift EMSA: 20 ul, 1.5 ug His-OCT4, 0.5 ug His-SOX2 where used, 50 nM biotin-dsDNA, 1 ul poly(dI-dC), 1x loading buffer (salt and pH not stated), 30 min, 25 C, recombinant protein, residues 1-360, protein details: His (pET28a), label: 5'-biotin on sense strand.
Where [5] appears, read: monomer, lowest affinity of all variants.

For part of these data: Weaker means in comparison with the reference protein, sequence or condition of that experiment. For at least one entry, the source does not settle the construct or the ends of the probe. At least one verdict was read from the data and is not stated in words by the source.

On to “CCGTCTTCTTGGCAGACAGCAGAGAGATGCATGACAAAGGTGCCGTGATGGTTCTGTCC (double strand) [OCT4-SORE probe]”, for which the binding result in the data set on OCT4 WT + SOX2 is “binds”; in data set [1] it was “binds”; in the data set on OCT4 K222D + SOX2, “binds”; in data set [2], “binds”; in data set [3] (setting [5]) it was “binds more weakly”; in data set [4], “binds”. Moreover, in the data set with OCT4 WT (Homo sapiens) (monomer, stronger than K222D), the binding result is on record as “binds”.

Take “TATACTAAGCAATTCTTCATTGATTTGAAATGCAAATTTGACTGGGCACCCTGTATCTT (double strand) [PORE probe]”: the binding result in data set [3] (homodimer, minimally bound) was “binds more weakly”; in the data set with OCT4 WT (Homo sapiens) (homodimer, less than K222F), “binds”.

For “TGTGAAATACCCTGCCTCATGCATATGCAAATAACCTGAGGTCTTCTGAGATAAATATA (double strand) [MORE probe]”, the binding result in data set [3] (homodimer, no obvious impact of the mutation) is given as “binds”; with OCT4 WT (Homo sapiens) (homodimer, reference for K222D), “binds”.

Turning to “GTCTGGGTTACTCTGCAGCTACTTTTGCATTACAATGGCCTTGGTGAGACTGGTAGACG (double strand) [NANOG-SORE probe]”, the binding result with OCT4 WT + SOX2 is reported as “binds”; in data set [1] it was “binds”; with OCT4 K222D + SOX2, “binds”; in data set [2], “binds”; in data set [3] (setting [5]), “binds more weakly”; in data set [4], “binds”. In addition, in the data set with OCT4 WT (Homo sapiens) (monomer, stronger than K222D), the binding result is “binds”.
